{
  "sequences": {"note": "By UniProt entry, the sequences of proteins in these tests, tags left out.", "UniProt Q92831": "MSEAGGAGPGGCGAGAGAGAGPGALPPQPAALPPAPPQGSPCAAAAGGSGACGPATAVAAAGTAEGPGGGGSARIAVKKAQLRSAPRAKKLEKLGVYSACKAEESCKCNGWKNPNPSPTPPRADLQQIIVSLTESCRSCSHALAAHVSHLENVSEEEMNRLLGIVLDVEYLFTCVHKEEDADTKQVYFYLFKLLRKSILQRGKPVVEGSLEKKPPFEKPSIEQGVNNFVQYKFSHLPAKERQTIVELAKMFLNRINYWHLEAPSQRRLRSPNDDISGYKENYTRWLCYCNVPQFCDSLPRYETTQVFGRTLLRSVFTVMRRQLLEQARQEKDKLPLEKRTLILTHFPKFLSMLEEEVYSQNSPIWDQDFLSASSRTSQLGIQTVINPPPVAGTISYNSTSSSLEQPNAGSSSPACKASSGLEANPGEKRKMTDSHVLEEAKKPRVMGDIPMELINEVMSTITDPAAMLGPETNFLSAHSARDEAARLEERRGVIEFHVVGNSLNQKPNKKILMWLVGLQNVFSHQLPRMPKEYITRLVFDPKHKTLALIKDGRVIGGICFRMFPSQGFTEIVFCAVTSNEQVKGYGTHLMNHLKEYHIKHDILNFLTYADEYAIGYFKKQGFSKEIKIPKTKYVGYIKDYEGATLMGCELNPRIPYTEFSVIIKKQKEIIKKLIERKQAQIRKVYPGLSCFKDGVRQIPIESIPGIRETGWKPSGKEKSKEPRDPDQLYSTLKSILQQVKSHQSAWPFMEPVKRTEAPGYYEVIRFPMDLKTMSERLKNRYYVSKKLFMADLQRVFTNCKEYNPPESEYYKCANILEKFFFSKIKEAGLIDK", "UniProt P38936": "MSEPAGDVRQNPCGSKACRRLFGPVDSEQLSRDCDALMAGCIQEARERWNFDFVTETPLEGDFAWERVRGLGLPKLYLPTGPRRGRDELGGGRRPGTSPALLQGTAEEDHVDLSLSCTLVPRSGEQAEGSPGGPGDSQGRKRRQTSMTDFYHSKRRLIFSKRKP", "UniProt Q15796": "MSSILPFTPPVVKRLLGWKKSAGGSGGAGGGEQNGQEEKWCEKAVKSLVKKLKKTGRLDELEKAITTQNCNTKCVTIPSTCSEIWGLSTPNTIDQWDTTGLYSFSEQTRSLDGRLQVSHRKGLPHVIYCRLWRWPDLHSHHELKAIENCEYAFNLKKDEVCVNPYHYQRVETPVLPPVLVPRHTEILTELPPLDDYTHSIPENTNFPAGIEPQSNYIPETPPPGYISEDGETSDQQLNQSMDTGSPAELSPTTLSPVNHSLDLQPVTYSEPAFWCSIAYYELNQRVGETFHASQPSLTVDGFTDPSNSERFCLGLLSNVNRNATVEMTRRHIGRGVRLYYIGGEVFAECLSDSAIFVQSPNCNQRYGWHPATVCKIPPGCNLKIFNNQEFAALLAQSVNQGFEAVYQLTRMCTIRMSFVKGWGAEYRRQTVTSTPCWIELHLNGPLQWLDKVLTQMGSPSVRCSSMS", "UniProt P84022": "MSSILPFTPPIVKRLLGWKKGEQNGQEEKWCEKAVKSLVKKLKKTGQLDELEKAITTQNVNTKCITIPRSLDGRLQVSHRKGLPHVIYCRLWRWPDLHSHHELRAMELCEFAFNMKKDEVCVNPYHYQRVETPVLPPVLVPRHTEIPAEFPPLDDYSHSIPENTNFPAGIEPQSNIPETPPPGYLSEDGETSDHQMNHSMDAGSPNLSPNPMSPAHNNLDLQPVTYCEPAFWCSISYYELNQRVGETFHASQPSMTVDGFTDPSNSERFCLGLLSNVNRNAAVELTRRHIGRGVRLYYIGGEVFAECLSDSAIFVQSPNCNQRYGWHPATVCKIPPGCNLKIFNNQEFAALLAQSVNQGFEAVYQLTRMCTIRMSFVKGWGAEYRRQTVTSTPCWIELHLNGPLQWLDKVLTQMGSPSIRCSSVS"},
  "source": "paper PMC4053104",
  "key": {"[1]": {"target": "p300/CBP-associated factor (p/CAF), endogenous (human (endogenous in SCP2, SUM159 and HEK293)) (UniProt Q92831)", "assay": "co-IP; endogenous proteins; SCP2 and SUM159 cells treated with TGFβ; immunoprecipitation overnight at 4°C with antibodies against p300/CBP, p/CAF and p21, protein G-Sepharose, immunoblotting"}, "[2]": {"target": "flag-p21 (Flag-tagged human p21Cip1) (human) (UniProt P38936)", "assay": "co-IP; HEK293 and SCP2 cells co-transfected with myc-Smad2, myc-Smad3 and flag-p21, stimulated with TGFβ for 8 hrs; lysates immunoprecipitated with an anti-flag antibody, immunoblotted with Smad2/3 and p21 or flag antibodies"}, "[3]": {"target": "6× myc-Smad2 (UniProt Q15796)", "assay": "co-IP; HEK293 cells co-transfected with myc-Smad3, myc-Smad2 and p/CAF; Smad2/3 immunoprecipitated with an anti-myc antibody, Western blotting"}, "[4]": {"target": "myc-Smad3 (UniProt P84022)", "assay": "co-IP; HEK293 cells co-transfected with myc-Smad3, myc-Smad2 and p/CAF; Smad2/3 immunoprecipitated with an anti-myc antibody, Western blotting"}},
  "note": "No constants are given. Whether binding was seen depends on the method and setting. In cells and extracts the contact can be indirect. Some results given as binding are weak or reduced against the parent protein; the word gives no strength.",
  "data": [
    {"substance": "p21Cip1 (endogenous) (from UniProt P38936 1-164)", "values": [
      {"measurement": "binding", "setting": "[1]", "result": "binds"}
    ]},
    {"substance": "6× myc-Smad2 (from UniProt Q15796 1-467)", "values": [
      {"measurement": "binding", "setting": "[2]", "result": "no binding"}
    ]},
    {"substance": "p/CAF (transfected, Addgene plasmid 8941) (from UniProt Q92831 1-832)", "values": [
      {"measurement": "binding", "setting": "[3]", "result": "binds"},
      {"measurement": "binding", "setting": "[4]", "result": "binds"}
    ]}
  ]
}
